Experimental data: PubChem BioAssay AID1259308 (NCATS, 2017)
Aim: 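Knock-downs that increase output of a recombinant reporter protein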 (primary screen). System: human HEK293 embryonic kidney cells stably expressing firefly luciferase (HEK-CMV-Luc2-Hygro). Reagents: single siRNA against human genes, 0.8 pmol siRNA per well. Duration: 72 h. Measurement: 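Reporter luminescence and viable-cell signal on separate replicate plates, given as percent of non-targeting control and median/MAD z-scores, plus per-cell luciferase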. Reading the numbers: total luciferase, z-score: higher = more reporter protein produced. Active means: 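An siRNA counts as active if its total luciferase robust z-score exceeds 3; genes with two or more such siRNAs out of three were retested with fresh siRNAs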. Meaning of the calls: active = raised luciferase; inactive = no rise.
This is one part, drawn at random, of about 59,000 reagents. In the full data, about 1,510 (2.6%) got an active call. 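Calls use total luciferase alone and ignore viability, so some active siRNAs may act by altering cell number.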 Unmarked entries are inactive. The numbers tell different reagents against one gene apart. Further read-outs or replicates are left out here. No sequences are given here.

| target | reagent | total luciferase, z-score |
| --- | --- | --- |
| ZNF205 | 1 | -0.517 |
| ZNF205 | 2 | 2.89 |
| ZNF205 | 3 | -0.689 |
| NMI | 1 | -0.151 |
| NMI | 2 | 0.644 |
| NMI | 3 | 2.1 |
| PHIP | 1 | -1.71 |
| PHIP | 2 | -0.0952 |
| PHIP | 3 | 0.992 |
| CXCL1 | 1 | 0.506 |
| CXCL1 | 2 | 0.329 |
| CXCL1 | 3 | 0.0963 |
| CLLU1 | 1 | -0.791 |
| CLLU1 | 2 | 0.444 |
| CLLU1 | 3 | 0.999 |
| CYP4A11 | 1 | -0.993 |
| CYP4A11 | 2 | -2.19 |
| CYP4A11 | 3 | -2.84 |
| HLA-DRB7 | 1 | 1.22 |
| HLA-DRB7 | 2 | 0.868 |
| HLA-DRB7 | 3 | 0.0215 |
| ERAP1 | 1 | -0.196 |
| ERAP1 | 2 | 0.296 |
| ERAP1 | 3 | -1.28 |
| CDH13 | 1 | -1.5 |
| CDH13 | 2 | -0.646 |
| CDH13 | 3 | 0.524 |
| CLEC18A | 1 | -2.3 |
| CLEC18A | 2 | 1.12 |
| CLEC18A | 3 | 1.07 |
| ZEB1 | 1 | -0.0841 |
| ZEB1 | 2 | 0.357 |
| ZEB1 | 3 | 0.538 |
| UMOD | 1 | -2.16 |
| UMOD | 2 | -0.0909 |
| UMOD | 3 | 1.6 |

In a second layout: 3 of the entries above.
ZEB1 #1
- total luciferase, z-score: -0.0841

ZEB1 #2
- total luciferase, z-score: 0.357

ZEB1 #3
- total luciferase, z-score: 0.538

Next records follow.
| target | reagent | total luciferase, z-score |
| --- | --- | --- |
| PTPRB | 1 | -0.037 |
| PTPRB | 2 | -1.28 |
| PTPRB | 3 | 0.324 |
| LAMB3 | 1 | -0.23 |
| LAMB3 | 2 | -0.566 |
| LAMB3 | 3 | -0.818 |
| BTN2A3P | 1 | 0.954 |
| BTN2A3P | 2 | 1.82 |
| BTN2A3P | 3 | -0.757 |
| ZNF648 | 1 | 2.88 |
| ZNF648 | 2 | -0.743 |
| ZNF648 | 3 | 1.77 |
| KRT17 | 1 | 0.46 |
| KRT17 | 2 | -0.784 |
| KRT17 | 3 | -1.05 |
| DCAKD | 1 | -0.116 |
| DCAKD | 2 | 0.287 |
| DCAKD | 3 | -0.133 |
| DHX36 | 1 | -0.095 |
| DHX36 | 2 | -0.108 |
| DHX36 | 3 | 0.461 |
| GPR37L1 | 1 | -0.193 |
| GPR37L1 | 2 | -0.535 |
| GPR37L1 | 3 | 0.21 |
| SYP | 1 | 0.921 |
| SYP | 2 | 0.16 |
| SYP | 3 | 0.604 |
| COX4I2 | 1 | 1.21 |
| COX4I2 | 2 | -0.168 |
| COX4I2 | 3 | -0.82 |
| ZNF75D | 1 | -0.738 |
| ZNF75D | 2 | 3.15 (active) |
| ZNF75D | 3 | -1.45 |
| ANKS4B | 1 | 1.56 |
| ANKS4B | 2 | 3.26 (active) |
| ANKS4B | 3 | 0.06 |
| OGFOD3 | 1 | 1.31 |
| OGFOD3 | 2 | -0.549 |
| OGFOD3 | 3 | -0.18 |
